Laboratory results from article PMC4207663.
Tags and fusion partners may be left off the protein sequences shown.

Test system: T1, RcoLS20-His(6) (Bacillus subtilis plasmid pLS20cat)
T1 sequence (looked up): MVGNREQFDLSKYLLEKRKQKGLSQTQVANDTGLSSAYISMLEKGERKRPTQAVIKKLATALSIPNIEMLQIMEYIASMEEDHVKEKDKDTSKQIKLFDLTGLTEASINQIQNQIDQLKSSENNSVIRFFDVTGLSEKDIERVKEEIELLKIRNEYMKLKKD
Assay: DNase I footprinting
Conditions: recombinant protein; residues 1-162; protein details: C-terminal His6; probe letters rebuilt from the primers and the genome

Sequence: GATCCTATACCACCTCGCAAAATAAACCCTGTATACGGTCTAGCGCTTACAATTTTTCGCGTTTTTTTTACTCAGTGAAAAAAACCGGTTAAAAATTTCACTGAAATACTTTACAGTTAAAAAAATGTCTGTTATCTTAGTGAAAGAGTCAGTGAAAAAAATGCAGAATAAGGTTTTTTGTTGTTAATCTCAAACAATTTCTGTGTAAAAAGAACTAGAATTCAACTTTTGTTTTAACCAACGTATTCACTGTTGTCTCTGAAGTTTTAACTACCAGTTAATTTAACCGTATGTATGTGTATTAATCATACACTATCAAAGTGTGCTATCACAATGTAGTCAGTTAATAATAAGTTTAGTAAAAACAGGATAAGGGCCAAGCTTAATA (double strand) [Pc/Pr footprint fragment]
- binding result: binds
